Reference: PubChem BioAssay AID743121 (NCATS, 2013)
The whole screen tested about 26,000 reagents; shown is an unselected part. Of all reagents, 167 (0.63%) got an active call. 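Calls are per gene from RSA p-values that are not deposited; an individual active-marked siRNA can sensitise only weakly.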 Unmarked entries are inactive. Reagents against one gene are numbered here. Not all columns of the deposit are shown. No sequences are given here.

Purpose: 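Genes whose silencing strengthens cell killing by camptothecin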 (primary screen)
Cell system: MDA-MB-231 cells, a human breast cancer line
Knock-down reagent: single siRNA against human genes, 20 nM siRNA (0.8 pmol per well)
Time to read-out: 120 h (drug added 48 h after transfection, read 72 h later)
Challenge: camptothecin 20 nM (about EC30) for 72 h; vehicle 0.1% DMSO in parallel plates
Measurement: 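Cell viability by ATP luminescence (CellTiter-Glo) as % of non-targeting siRNA wells, and the log2 ratio of viability without drug over viability with camptothecin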
Reading the numbers: log2 vehicle/camptothecin viability: higher = stronger sensitisation to camptothecin
Hit rule: 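Each gene scored by redundant siRNA activity (RSA) over its individual siRNA ratios; a gene is called active at p < 0.001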

What is on record for AK5 (adenylate kinase 5) #1?
log2 vehicle/camptothecin viability: -0.227

How did the screen score AK5 (adenylate kinase 5) #2?
log2 vehicle/camptothecin viability: -0.552

What did the screen give for AK5 (adenylate kinase 5) #3?
log2 vehicle/camptothecin viability: 0.0304

What is on record for AK5 (adenylate kinase 5) #4?
log2 vehicle/camptothecin viability: -0.239

How did the screen score LMBR1L (limb development membrane protein 1 like) #1?
log2 vehicle/camptothecin viability: 0.0281

For LMBR1L (limb development membrane protein 1 like) #2, how do the results read?
log2 vehicle/camptothecin viability: -0.115

Which result is listed for LMBR1L (limb development membrane protein 1 like) #3?
log2 vehicle/camptothecin viability: -0.0603

How did the screen score LMBR1L (limb development membrane protein 1 like) #4?
log2 vehicle/camptothecin viability: -0.135

With HERPUD1 #1, what does the deposit list?
log2 vehicle/camptothecin viability: 0.213

What did the screen give for HERPUD1 #2?
log2 vehicle/camptothecin viability: 0.305

With HERPUD1 #3, how do the results read?
log2 vehicle/camptothecin viability: -0.162

For TLL1 (tolloid like 1) #1, what does the deposit list?
log2 vehicle/camptothecin viability: -0.312

What did the screen give for TLL1 (tolloid like 1) #2?
log2 vehicle/camptothecin viability: -0.00512

With TLL1 (tolloid like 1) #3, what does the deposit list?
log2 vehicle/camptothecin viability: -0.403

With TLL1 (tolloid like 1) #4, what does the deposit list?
log2 vehicle/camptothecin viability: -0.0899

What did the screen give for FBXO45 (F-box protein 45) #1?
log2 vehicle/camptothecin viability: -0.464

Which result is listed for FBXO45 (F-box protein 45) #2?
log2 vehicle/camptothecin viability: 0.00917

Which result is listed for FBXO45 (F-box protein 45) #3?
log2 vehicle/camptothecin viability: 0.108

How did the screen score POU1F1 (POU class 1 homeobox 1) #1?
log2 vehicle/camptothecin viability: -0.0149

With POU1F1 (POU class 1 homeobox 1) #2, what was measured?
log2 vehicle/camptothecin viability: -0.076

With POU1F1 (POU class 1 homeobox 1) #3, what does the deposit list?
log2 vehicle/camptothecin viability: 0.373

How did the screen score POU1F1 (POU class 1 homeobox 1) #4?
log2 vehicle/camptothecin viability: -0.166

With PCM1 (pericentriolar material 1) #1, what does the deposit list?
log2 vehicle/camptothecin viability: -0.383

What is on record for PCM1 (pericentriolar material 1) #2?
log2 vehicle/camptothecin viability: 0.0687

For PCM1 (pericentriolar material 1) #3, how do the results read?
log2 vehicle/camptothecin viability: -0.244

How did the screen score PCM1 (pericentriolar material 1) #4?
log2 vehicle/camptothecin viability: 0.0608

What is on record for UCN2 (urocortin 2) #1?
log2 vehicle/camptothecin viability: -0.149

For UCN2 (urocortin 2) #2, how do the results read?
log2 vehicle/camptothecin viability: -0.121

For UCN2 (urocortin 2) #3, what does the deposit list?
log2 vehicle/camptothecin viability: -0.905

What did the screen give for UCN2 (urocortin 2) #4?
log2 vehicle/camptothecin viability: -0.65

For STAT4 (signal transducer and activator of transcription 4) #1, how do the results read?
log2 vehicle/camptothecin viability: -0.0215

What did the screen give for STAT4 (signal transducer and activator of transcription 4) #2?
log2 vehicle/camptothecin viability: -0.23

What did the screen give for STAT4 (signal transducer and activator of transcription 4) #3?
log2 vehicle/camptothecin viability: 0.0184

For DDB1 (damage specific DNA binding protein 1) #1, what was measured?
log2 vehicle/camptothecin viability: -0.319

For DDB1 (damage specific DNA binding protein 1) #2, how do the results read?
log2 vehicle/camptothecin viability: -0.245

What did the screen give for DDB1 (damage specific DNA binding protein 1) #3?
log2 vehicle/camptothecin viability: -0.156

For DDB1 (damage specific DNA binding protein 1) #4, what was measured?
log2 vehicle/camptothecin viability: -0.353

Which result is listed for SLC24A1 #1?
log2 vehicle/camptothecin viability: -0.0266

With SLC24A1 #2, how do the results read?
log2 vehicle/camptothecin viability: -0.357

With SLC24A1 #3, how do the results read?
log2 vehicle/camptothecin viability: -0.649

For SLC24A1 #4, what does the deposit list?
log2 vehicle/camptothecin viability: -0.305

With TAOK1 (TAO kinase 1) #1, how do the results read?
log2 vehicle/camptothecin viability: -0.022

For TAOK1 (TAO kinase 1) #2, what does the deposit list?
log2 vehicle/camptothecin viability: -0.0624

How did the screen score TAOK1 (TAO kinase 1) #3?
log2 vehicle/camptothecin viability: -0.335

How did the screen score TAOK1 (TAO kinase 1) #4?
log2 vehicle/camptothecin viability: -0.588

Part of the list above in another layout.
{"target": "PCM1 (pericentriolar material 1)", "siRNA no.": 2, "log2 vehicle/camptothecin viability": 0.0687}
{"target": "PCM1 (pericentriolar material 1)", "siRNA no.": 3, "log2 vehicle/camptothecin viability": -0.244}
{"target": "PCM1 (pericentriolar material 1)", "siRNA no.": 4, "log2 vehicle/camptothecin viability": 0.0608}
{"target": "UCN2 (urocortin 2)", "siRNA no.": 1, "log2 vehicle/camptothecin viability": -0.149}
{"target": "UCN2 (urocortin 2)", "siRNA no.": 2, "log2 vehicle/camptothecin viability": -0.121}
{"target": "UCN2 (urocortin 2)", "siRNA no.": 3, "log2 vehicle/camptothecin viability": -0.905}
{"target": "UCN2 (urocortin 2)", "siRNA no.": 4, "log2 vehicle/camptothecin viability": -0.65}
